# Reference: PMC7060239
# Amino acid sequences for entries named in this document (tags omitted).
# UniProt P13864: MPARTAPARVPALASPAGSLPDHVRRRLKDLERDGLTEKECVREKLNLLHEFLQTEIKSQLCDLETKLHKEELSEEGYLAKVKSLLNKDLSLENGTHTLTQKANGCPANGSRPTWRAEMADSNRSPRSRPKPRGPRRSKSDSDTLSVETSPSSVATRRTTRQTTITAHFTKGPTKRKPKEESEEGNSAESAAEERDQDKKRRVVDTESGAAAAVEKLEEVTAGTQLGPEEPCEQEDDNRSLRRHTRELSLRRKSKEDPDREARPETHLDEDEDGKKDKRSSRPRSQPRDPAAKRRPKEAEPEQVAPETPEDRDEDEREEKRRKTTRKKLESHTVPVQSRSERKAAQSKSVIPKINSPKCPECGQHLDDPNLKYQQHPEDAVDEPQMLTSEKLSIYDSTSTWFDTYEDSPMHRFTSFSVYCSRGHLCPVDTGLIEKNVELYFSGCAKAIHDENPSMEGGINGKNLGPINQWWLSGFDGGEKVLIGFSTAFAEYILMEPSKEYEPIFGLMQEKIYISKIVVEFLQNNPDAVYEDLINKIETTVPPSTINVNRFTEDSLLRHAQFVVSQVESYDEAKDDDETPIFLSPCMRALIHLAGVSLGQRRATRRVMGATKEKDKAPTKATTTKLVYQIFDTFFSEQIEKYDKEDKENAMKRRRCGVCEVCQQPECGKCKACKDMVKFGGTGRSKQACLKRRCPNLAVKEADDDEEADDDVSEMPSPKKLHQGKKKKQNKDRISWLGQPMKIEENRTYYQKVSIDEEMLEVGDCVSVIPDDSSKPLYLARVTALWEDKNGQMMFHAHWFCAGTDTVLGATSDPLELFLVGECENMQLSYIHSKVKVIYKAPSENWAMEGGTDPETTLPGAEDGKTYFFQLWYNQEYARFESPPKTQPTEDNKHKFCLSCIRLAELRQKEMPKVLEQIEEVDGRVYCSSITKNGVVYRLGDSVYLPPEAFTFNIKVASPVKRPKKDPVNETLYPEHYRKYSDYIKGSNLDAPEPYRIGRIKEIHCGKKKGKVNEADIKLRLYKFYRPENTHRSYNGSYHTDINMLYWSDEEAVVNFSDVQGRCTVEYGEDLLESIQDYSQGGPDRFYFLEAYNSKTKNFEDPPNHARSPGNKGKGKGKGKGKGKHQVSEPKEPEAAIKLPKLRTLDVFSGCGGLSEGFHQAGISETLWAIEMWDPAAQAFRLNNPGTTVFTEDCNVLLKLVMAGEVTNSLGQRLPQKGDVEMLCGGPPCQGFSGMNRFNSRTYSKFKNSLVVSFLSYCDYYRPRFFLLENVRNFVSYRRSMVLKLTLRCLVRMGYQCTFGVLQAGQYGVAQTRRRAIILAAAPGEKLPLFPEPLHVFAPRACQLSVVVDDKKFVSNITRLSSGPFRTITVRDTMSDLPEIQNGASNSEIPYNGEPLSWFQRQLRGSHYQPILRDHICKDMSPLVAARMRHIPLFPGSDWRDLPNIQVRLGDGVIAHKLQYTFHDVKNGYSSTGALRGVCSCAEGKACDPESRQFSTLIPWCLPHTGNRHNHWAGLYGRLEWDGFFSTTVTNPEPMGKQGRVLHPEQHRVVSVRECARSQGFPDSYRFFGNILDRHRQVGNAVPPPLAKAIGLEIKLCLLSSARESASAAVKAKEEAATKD
# Results are given in words; binding and its absence hold for the method and conditions named. For some of these results: In cells and extracts the contact can be indirect.
# Key:
# [1] = target: endogenous murine DNMT1 (mouse (endogenous in J1 mESCs)) (UniProt P13864); assay: co-IP; endogenous mDNMT1 precipitated with an anti-DNMT1 nanobody (DNMT1-Trap) from whole-cell lysates of mESCs (WT, D1KO, U1KO, K15R, K24R, KRKR); 2 h, 4 °C; immunoblot
# GFP-mDNMT1 (mouse) = GFP-mDNMT1 (mouse) (UniProt P13864); assay: fluorescent-3-hybrid (F3H) assay; BHK cells with a lacO array; GFP-tagged bait held at the array by GBP-LacI, mCherry-tagged prey; fixed 24 h after transfection; confocal microscopy, mCherry/GFP ratio in the spot
Binder,binding [1],binding (GFP-mDNMT1 (mouse))
"mPAF15 K15R (Paf15 K15R mESCs) (protein, UniProt Q9CQX4 1-110) MVRTKANYVPGAYRRAVASQAPRKVLGSSTFVTNSSSSSRKAENKYAGGNPVCVRPTPKWQKGIGEFFRLSPKESKKENQAPEEAGTSGLGKAKRKACPLQPDHRDDENE",no binding,
"mPAF15 K24R (Paf15 K24R mESCs) (protein, UniProt Q9CQX4 1-110) MVRTKANYVPGAYRKAVASQAPRRVLGSSTFVTNSSSSSRKAENKYAGGNPVCVRPTPKWQKGIGEFFRLSPKESKKENQAPEEAGTSGLGKAKRKACPLQPDHRDDENE",no binding,

# More lines, now with the values ahead:
binding [1],binding (GFP-mDNMT1 (mouse)),Binder
,no binding,"mCherry-mPAF15 K15R/K24R double mutant (protein, UniProt Q9CQX4 1-110) MVRTKANYVPGAYRRAVASQAPRRVLGSSTFVTNSSSSSRKAENKYAGGNPVCVRPTPKWQKGIGEFFRLSPKESKKENQAPEEAGTSGLGKAKRKACPLQPDHRDDENE"
no binding,,"mPAF15 K15R/K24R (Paf15 KRKR mESCs) (protein, UniProt Q9CQX4 1-110) MVRTKANYVPGAYRRAVASQAPRRVLGSSTFVTNSSSSSRKAENKYAGGNPVCVRPTPKWQKGIGEFFRLSPKESKKENQAPEEAGTSGLGKAKRKACPLQPDHRDDENE"
